Source: patent publication US10633353B2, “Polymerizable compound, composition, polymer, optically anisotropic body, liquid crystal display element, and organic EL display” (DIC Corporation, priority 2014, dated 2020)

Assay: Optical property of the optical film (retardation, Re(450)/Re(550))
Details: Re(450)/Re(550) of the optical film, RET-100
For C=CC(=O)OCCCCCCOc1ccc(C(=O)OCCc2ccc(OC(=O)c3ccc(OCCCCCCOC(=O)C=C)cc3)c(/C=N/Nc3nc4ccccc4s3)c2)cc1 [1-c-1], the Optical property was “A (Re(450)/Re(550)≤0.85)”. In the case of C=CC(=O)OCCCOc1ccc(C(=O)OCCc2ccc(OC(=O)c3ccc(OCCCOC(=O)C=C)cc3)c(/C=N/Nc3nc4ccccc4s3)c2)cc1 [1-c-2], the Optical property is reported as “A (Re(450)/Re(550)≤0.85)”. With C=CC(=O)OCCCCOc1ccc(C(=O)OCCc2ccc(OC(=O)c3ccc(OCCCCOC(=O)C=C)cc3)c(/C=N/Nc3nc4ccccc4s3)c2)cc1 [1-c-3] the Optical property was “A (Re(450)/Re(550)≤0.85)”. For C=CC(=O)OCCCCCOc1ccc(C(=O)OCCc2ccc(OC(=O)c3ccc(OCCCCCOC(=O)C=C)cc3)c(/C=N/Nc3nc4ccccc4s3)c2)cc1 [1-c-4], the Optical property was “A (Re(450)/Re(550)≤0.85)”. In the case of C=C(C)C(=O)OCCCOc1ccc(C(=O)OCCc2ccc(OC(=O)c3ccc(OCCCOC(=O)C(=C)C)cc3)c(/C=N/Nc3nc4ccccc4s3)c2)cc1 [1-c-5], the Optical property is reported as “A (Re(450)/Re(550)≤0.85)”. With C=C(C)C(=O)OCCCCOc1ccc(C(=O)OCCc2ccc(OC(=O)c3ccc(OCCCCOC(=O)C(=C)C)cc3)c(/C=N/Nc3nc4ccccc4s3)c2)cc1 [1-c-6] the Optical property was “A (Re(450)/Re(550)≤0.85)”. With C=C(C)C(=O)OCCCCCOc1ccc(C(=O)OCCc2ccc(OC(=O)c3ccc(OCCCCCOC(=O)C(=C)C)cc3)c(/C=N/Nc3nc4ccccc4s3)c2)cc1 [1-c-7] the Optical property was “A (Re(450)/Re(550)≤0.85)”. In the case of C=C(C)C(=O)OCCCCCCOc1ccc(C(=O)OCCc2ccc(OC(=O)c3ccc(OCCCCCCOC(=O)C(=C)C)cc3)c(/C=N/Nc3nc4ccccc4s3)c2)cc1 [1-c-8], the Optical property is reported as “A (Re(450)/Re(550)≤0.85)”. In the case of C=CC(=O)OCCCOc1ccc(C(=O)OCCc2ccc(CCOC(=O)c3ccc(OCCCOC(=O)C=C)cc3)c(/C=N/Nc3nc4ccccc4s3)c2)cc1 [1-c-9], the Optical property is reported as “A (Re(450)/Re(550)≤0.85)”. In the case of C=CC(=O)OCCCCOc1ccc(C(=O)OCCc2ccc(CCOC(=O)c3ccc(OCCCCOC(=O)C=C)cc3)c(/C=N/Nc3nc4ccccc4s3)c2)cc1 [1-c-10], the Optical property is reported as “A (Re(450)/Re(550)≤0.85)”. In the case of C=CC(=O)OCCCCCOc1ccc(C(=O)OCCc2ccc(CCOC(=O)c3ccc(OCCCCCOC(=O)C=C)cc3)c(/C=N/Nc3nc4ccccc4s3)c2)cc1 [1-c-11], the Optical property is reported as “A (Re(450)/Re(550)≤0.85)”. With C=CC(=O)OCCCCCCOc1ccc(C(=O)OCCc2ccc(CCOC(=O)c3ccc(OCCCCCCOC(=O)C=C)cc3)c(/C=N/Nc3nc4ccccc4s3)c2)cc1 [1-c-12] the Optical property was “A (Re(450)/Re(550)≤0.85)”. For C=CC(=O)OCCCOc1ccc(OC(=O)C2CCC(C(=O)OCCc3ccc(OC(=O)C4CCC(C(=O)Oc5ccc(OCCCOC(=O)C=C)cc5)CC4)c(C=NNc4nc5ccccc5s4)c3)CC2)cc1 (stereo not shown) [1-c-13], the Optical property was “A (Re(450)/Re(550)≤0.85)”. In the case of C=CC(=O)OCCCCOc1ccc(OC(=O)C2CCC(C(=O)OCCc3ccc(OC(=O)C4CCC(C(=O)Oc5ccc(OCCCCOC(=O)C=C)cc5)CC4)c(C=NNc4nc5ccccc5s4)c3)CC2)cc1 (stereo not shown) [1-c-14], the Optical property is reported as “A (Re(450)/Re(550)≤0.85)”. In the case of C=CC(=O)OCCCCCOc1ccc(OC(=O)C2CCC(C(=O)OCCc3ccc(OC(=O)C4CCC(C(=O)Oc5ccc(OCCCCCOC(=O)C=C)cc5)CC4)c(C=NNc4nc5ccccc5s4)c3)CC2)cc1 (stereo not shown) [1-c-15], the Optical property is reported as “A (Re(450)/Re(550)≤0.85)”. In the case of C=CC(=O)OCCCOc1ccc(C(=O)OCCc2ccc(OC(=O)c3ccc(OCCCOC(=O)C=C)cc3)c(/C=N/Nc3nc4cc([N+](=O)[O-])ccc4s3)c2)cc1 [1-c-23], the Optical property is reported as “A (Re(450)/Re(550)≤0.85)”. For C=CC(=O)OCCCOc1ccc(C(=O)OCCc2ccc(OC(=O)c3ccc(OCCCOC(=O)C=C)cc3)c(/C=N/Nc3nc4cc(Cl)ccc4s3)c2)cc1 [1-c-24], the Optical property was “A (Re(450)/Re(550)≤0.85)”. For C=CC(=O)OCCCOc1ccc(C(=O)OCCc2ccc(OC(=O)c3ccc(OCCCOC(=O)C=C)cc3)c(/C=N/Nc3nc4cc(C#N)ccc4s3)c2)cc1 [1-c-25], the Optical property was “A (Re(450)/Re(550)≤0.85)”. For C=CC(=O)OCCCOc1ccc(C(=O)OCCc2ccc(OC(=O)c3ccc(OCCCOC(=O)C=C)cc3)c(/C=N/Nc3nc4cc(CCC)ccc4s3)c2)cc1 [1-c-26], the Optical property was “A (Re(450)/Re(550)≤0.85)”. In the case of C=CC(=O)OCCCCOc1ccc(C(=O)OCCc2ccc(OC(=O)c3ccc(OCCCCOC(=O)CC)cc3)c(/C=N/Nc3cc4ccccc4[nH]3)c2)cc1 [1-c-28], the Optical property is reported as “A (Re(450)/Re(550)≤0.85)”. For C=CC(=O)OCCCCCOc1ccc(C(=O)OCCc2ccc(OC(=O)c3ccc(OCCCCCOC(=O)C=C)cc3)c(/C=N/Nc3nc4cc(O)c([N+](=O)[O-])cc4[nH]3)c2)cc1 [1-c-29], the Optical property was “A (Re(450)/Re(550)≤0.85)”. With C=CC(=O)OCCCCCCOc1ccc(C(=O)OCCc2ccc(OC(=O)c3ccc(OCCCCCCOC(=O)C=C)cc3)c(/C=N/Nc3nc4cc([N+](=O)[O-])ccc4s3)c2)cc1 [1-c-30] the Optical property was “A (Re(450)/Re(550)≤0.85)”. In the case of C=CC(=O)OCCCCCCOc1ccc(C(=O)OCCc2ccc(OC(=O)c3ccc(OCCCCCCOC(=O)C=C)cc3)c(/C=N/Nc3ccc(C#Cc4ccccc4)cc3)c2)cc1 [1-c-31], the Optical property is reported as “A (Re(450)/Re(550)≤0.85)”. With C=CC(=O)OCCCCCCOc1ccc(C(=O)OCCc2ccc(OC(=O)c3ccc(OCCCCCCOC(=O)C=C)cc3)c(/C=N/Nc3ccc4ccccc4c3)c2)cc1 [1-c-32] the Optical property was “A (Re(450)/Re(550)≤0.85)”. With C=CC(=O)OCCCCCCOc1ccc(C(=O)OCCc2ccc(OC(=O)c3ccc(OCCCCCCOC(=O)C=C)cc3)c(/C=N/Nc3nc4ccc5ccccc5c4s3)c2)cc1 [1-c-33] the Optical property was “A (Re(450)/Re(550)≤0.85)”. In the case of C=CC(=O)OCCCCCCOc1ccc(C(=O)OCCc2ccc(OC(=O)c3ccc(OCCCCCCOC(=O)C=C)cc3)c(/C=N/Nc3nc(-c4ccc5ccccc5c4)cs3)c2)cc1 [1-c-34], the Optical property is reported as “A (Re(450)/Re(550)≤0.85)”. In the case of C=CC(=O)OCCCCOc1ccc(C(=O)OCCc2ccc(OC(=O)c3ccc(OCCCCOC(=O)C=C)cc3)c(/C=N/N(CCCCCC)c3nc4ccc5ccccc5c4s3)c2)cc1 [1-c-40], the Optical property is reported as “A (Re(450)/Re(550)≤0.85)”. With C=CC(=O)OCCCOc1ccc(C(=O)OCCc2ccc(CCOC(=O)c3ccc(OCCCOC(=O)C=C)cc3)c(/C=N/N(C(=O)C=C)c3nc(-c4ccc5ccccc5c4)cs3)c2)cc1 [1-c-41] the Optical property was “A (Re(450)/Re(550)≤0.85)”. In the case of C=CC(=O)OCCCCCCOc1ccc(OC(=O)C2CCC(C(=O)OCCc3ccc(OC(=O)C4CCC(C(=O)Oc5ccc(OCCCCCCOC(=O)C=C)cc5)CC4)c(/C=N/Nc4cccc5ccccc45)c3)CC2)cc1 (stereo not shown) [1-c-42], the Optical property is reported as “A (Re(450)/Re(550)≤0.85)”. In the case of C=CC(=O)OCCCCCCOc1ccc(/C=C/C(=O)Oc2ccc(OC(=O)/C=C/c3ccc(OCCCCCCOC(=O)C=C)cc3)c(/C=N/Nc3nc4ccccc4s3)c2)cc1 [1-c-43], the Optical property is reported as “A (Re(450)/Re(550)≤0.85)”. In the case of C=CC(=O)OCCCOc1ccc(/C=C/C(=O)Oc2ccc(OC(=O)/C=C/c3ccc(OCCCOC(=O)C=C)cc3)c(/C=N/Nc3nc4ccccc4s3)c2)cc1 [1-c-44], the Optical property is reported as “A (Re(450)/Re(550)≤0.85)”. With C=CC(=O)OCCCCOc1ccc(/C=C/C(=O)Oc2ccc(OC(=O)/C=C/c3ccc(OCCCCOC(=O)C=C)cc3)c(/C=N/Nc3nc4ccccc4s3)c2)cc1 [1-c-45] the Optical property was “A (Re(450)/Re(550)≤0.85)”. With C=CC(=O)OCCCOc1ccc(/C=C/C(=O)Oc2ccc(OC(=O)/C=C/c3ccc(OCCCOC(=O)C=C)c(OC)c3)c(/C=N/Nc3nc4ccccc4s3)c2)cc1OC [1-c-46] the Optical property was “A (Re(450)/Re(550)≤0.85)”. In the case of C=CC(=O)OCCCOc1ccc(/C=C/C(=O)Oc2ccc(OC(=O)/C=C/c3ccc(OCCCOC(=O)C=C)c(Cl)c3)c(/C=N/Nc3nc4ccccc4s3)c2)cc1Cl [1-c-47], the Optical property is reported as “A (Re(450)/Re(550)≤0.85)”.
